According to patent US20190284272A1 (published 2019):

How the values were obtained:
[1] = biological target: wildtype feline IL-31 protein (Feline_IL31_wildtype) (feline); test: SPR (Biacore), FIG. 2
[2] = biological target: canine IL-31 protein (Canine_IL31) (canine); test: SPR (Biacore), FIG. 2
[3] = biological target: wildtype feline IL-31 protein (Feline_IL31_wildtype) (feline); test: SPR (Biacore), FIG. 2 Section C
[4] = biological target: canine IL-31 protein (Canine_IL31) (canine); test: SPR (Biacore), FIG. 2 Section C
[5] = biological target: wildtype feline IL-31 protein (Feline_IL31_wildtype) (feline); test: SPR (Biacore), FIG. 2 Sections A and C
[6] = biological target: canine IL-31 protein (Canine_IL31) (canine); test: SPR (Biacore), FIG. 2 Sections A and C
[7] = biological target: wildtype feline IL-31 protein (Feline_IL31_wildtype) (feline); test: SPR (Biacore), IL-31 protein as surface
[8] = biological target: mutant feline IL-31 11E12 protein (Feline_IL31_11E12_mutant) (feline); test: SPR (Biacore), IL-31 protein as surface
[9] = biological target: canine IL-31 protein (Canine_IL31) (canine); test: SPR (Biacore), IL-31 protein as surface
[10] = biological target: wildtype feline IL-31 protein (Feline_IL31_wildtype) (feline); test: SPR (Biacore), FIG. 2 Section D
[11] = biological target: wildtype feline IL-31 protein (Feline_IL31_wildtype) (feline); test: SPR (Biacore)
[12] = biological target: canine IL-31 protein (Canine_IL31) (canine); test: SPR (Biacore)
[13] = biological target: wildtype feline IL-31 protein (Feline_IL31_wildtype) (feline); test: SPR (Biacore), FIG. 2 Section B
[14] = biological target: canine IL-31 protein (Canine_IL31) (canine); test: SPR (Biacore), FIG. 2 Section B
[15] = biological target: wildtype feline IL-31 protein (Feline_IL31_wildtype) (feline); test: SPR (Biacore), FIG. 2 Sections A and B
[16] = biological target: wildtype feline IL-31 protein (Feline_IL31_wildtype) (feline); test: Biacore, IL-31 surface, single antibody concentration (FIG. 4)
[17] = biological target: mutant feline IL-31 15H05 protein (Feline_IL31_15H05_mutant) (feline); test: as above
[18] = biological target: wildtype feline IL-31 protein (Feline_IL31_wildtype) (feline); test: SPR (Biacore), values in FIG. 2

- binding [1]: binds
- binding [2]: binds
- binding [3]: binds
- binding [4]: binds
B1: Feline 15H05 1.1 FW2 (antibody, V domains shown)
VH: QVLLVQSGAEVRTPGASVKIFCKASGYSFTSYTIHWLRQAPAQGLEWMGNINPTSGYTENNQRFKDRLTLTADTSTNTAYMELSSLRSADTAMYYCARWGFKYDGEWSFDVWGAGTTVTVSS
VL: EIQMTQSPSSLSASPGDRVTITCRASQGISIWLSWYQQKPGNIPKVLINKASNLHIGVPSRFSGSGSGTDFTLTISSLEPEDAATYYCLQSQTYPLTFGGGTKLEIK

- binding [10]: binds
B5: ZTS-927 (antibody)
heavy: QVLLVQSGAEVRTPGASVKIFCKASGYSFTSYTIHWLRQAPAQGLEWMGNINPTSGYTENNQRFKDRLTLTADTSTNTAYMELSSLRSADTAMYYCARWGFKYDGEWSFDVWGAGTTVTVSSASTTAPSVFPLAPSCGTTSGATVALACLVLGYFPEPVTVSWNSGALTSGVHTFPAVLQASGLYSLSSMVTVPSSRWLSDTFTCNVAHPPSNTKVDKTVRKTDHPPGPKPCDCPKCPPPEMLGGPSIFIFPPKPKDTLSISRTPEVTCLVVDLGPDDSDVQITWFVDNTQVYTAKTSPREEQFNSTYRVVSVLPILHQDWLKGKEFKCKVNSKSLPSPIERTISKAKGQPHEPQVYVLPPAQEELSRNKVSVTCLIKSFHPPDIAVEWEITGQPEPENNYRTTPPQLDSDGTYFVYSKLSVDRSHWQRGNTYTCSVSHEALHSHHTQKSLTQSPGK
light: EIQMTQSPSSLSASPGDRVTITCRASQGISIWLSWYQQKPGNIPKVLINKASNLHIGVPSRFSGSGSGTDFTLTISSLEPEDAATYYCLQSQTYPLTFGGGTKLEIKRSDAQPSVFLFQPSLDELHTGSASIVCILNDFYPKEVNVKWKVDGVVQNKGIQESTTEQNSKDSTYSLSSTLTMSSTEYQSHEKFSCEVTHKSLASTLVKSFQRSECQRE

- binding [16]: binds
- binding [17]: binds
- binding [18]: binds
B8: mouse anti IL-31 antibody 11E12 (antibody, V domains shown)
VH: QVQLQQSGAELVKPGASVKLSCKASGYTFKYYDINWVRQRPEQGLEWIGWIFPGDGGTKYNETFKGKATLTTDKSSSTAYMQLSRLTSEDSAVYFCARGGTSVIRDAMDYWGQGTSVTVSS
VL: DIVLTQSPASLAVSLGQRATISCRASESVDNYGISFMHWYQQKPGQPPKLLIYRASNLESGIPARFSGSGSRTDFTLTINPVETDDVATYYCQQSNKDPLTFGAGTKLELK

Continued, binder first:

B2: Feline 15H05 VH3 mouse VL (antibody, V domains shown)
VH: B1 VH with T13K, A42E
VL: DIQMNQSPSSLSASLGDTITVTCRASQGISIWLSWYQQKPGNIPKVLINKASNLHIGVPPRFSGSGSGTHFTLTITSLQPEDIATYYCLQSQTYPLTFGGGTKLEIN
- binding [5]: binds
- binding [6]: binds

B3: ZTS-1505 (antibody)
heavy: B5 heavy with M242A, L243A, G245A
light: EIQMTQSPSSLSASPGDRVTITCRASQGISIWLSWYQQKPGNIPKVLINKASNLHIGVPSRFSGSGSGTDFTLTISSLEPEDAATYYCLQSQTYPLTFGGGTKLEIKRSDAQPSVFLFQPSLDELHTGSASIVCILNDFYPKEVNVKWKVDGVVQNKGIQESTTEQNSKDSTYSLSSTLTMSSTEYQSHEKFSCEVTHKSLASTLVKSFQRSEC
notes: also called ZT-1 505
- binding [7]: binds
- binding [8]: binds
- binding [9]: binds

B4: ZTS-361 (antibody)
heavy: B5 heavy with M242A, L243A, G245A
light: B5 light
notes: Felinized 15H05 1.1 FW2, effector-null feline heavy constant region
- binding [8]: binds
- binding [10]: binds

B6: Feline 11E12 1.1 (antibody, V domains shown)
VH: QVLLVQSGAEVKKPGASVKIFCKASGYSFTYYDINWLRQAPEQGLEWMGWIFPGDGGTKYNETFKGRLTLTADTSTNTVYMELSSLRSADTAMYYCARGGTSVIRDAMDYWGQGALVTVSS
VL: EIQMTQSPSSLSASPGDRVTITCRASESVDNYGISFMHWYQQKPGKVPKLLIYRASNLESGVPSRFSGSGSGTDFTLTISSLEPEDAATYYCQQSNKDPLTFGQGT
- binding [11]: binds
- binding [12]: binds
- binding [13]: binds
- binding [14]: binds

B7: Feline 11E12 1.1 FW2 (antibody, V domains shown)
VH: B6 VH
VL: B6 VL with K46Q, V47P
- binding [14]: binds
- binding [15]: binds

Changes are numbered by the printed parent chain. These are yes or no findings as the source states them, for the method shown. A result given as binding can be weak or reduced; the word gives no strength. Each block holds one binder with its values, some of them ahead of it.
